Laboratory results from US5760000A (University Technologies International,Inc., priority 1994, dated 1998).
“Also recorded” adds a separate entry of the source. Not every detail of the peptide structures is certain; ends, links or a residue may be inferred. Non-standard residues stand in square brackets, D forms with d. Residues, ends and D or L forms follow the SMILES beside them. *: point of attachment. dPhe(4-Cl) = N[C@H](Cc1ccc(Cl)cc1)C(=O)O; d2Nal = N[C@H](Cc1ccc2ccccc2c1)C(=O)O; Lys(iPr) = CC(C)NCCCC[C@H](N)C(=O)O; d(pGlu) = O=C1CC[C@H](C(=O)O)N1; d3Pal = N[C@H](Cc1cccnc1)C(=O)O; Nicotinoyl = O=C(c1cccnc1)*

Tested on: HepG2 cells
Test: HepG2 cell proliferation (cell counting)
Format: cell-based
Details: for Inhibition of [D-Lys6]-GnRH-mediated suppression of HepG2 cell proliferation by antagonist: antagonist added together with [D-Lys6]-GnRH; for Effect of GnRH antagonist alone on HepG2 cell proliferation: antagonist administered alone
Description: HepG2 or HuH-7 cells were maintained in 75-cm^2 flasks at 37° C. under a humidified atmosphere of 5% CO2 in modified Minimum Essential Medium (Gibco-BRL) supplemented with 10% fetal bovine serum, 200mM 1-Glutamine (1%), Penicillin (1000 IU/ml), streptomycin (100 μg/ml) and sodium bicarbonate (0.15%). Cells grown to confluence were harvested following mild trypsinization and wash (twice by slow centrifugation; 400 g for 10 minutes) in normal culture medium.
Approximately 50,000 cells in 1.0 ml culture media were plated in 24 deep well plates (Flacon). This time was considered day -1. Cells were allowed to grow for one day. The growing cells were then treated with various hormones (at day 0) prepared aseptically in culture media immediately prior to addition. The final volume was maintained at 1 ml. The plates were then incubated at 37° C. for a period of 4 to 6 days, as described above.
Cells in each well were harvested by removal of culture media and incubation with 0.5 ml 0.25% trypsin and 1.75 mM EDTA for 30 minutes at 37° C. Cells were then transferred into 1.5 ml microfuge tubes and centrifuged at 100g for 10 minutes. The supernatant was removed and the pellet was resuspended in a final volume of 200 μl of culture media containing 10% trypan blue.
Cells were then counted using a hemocytometer. The average cell mortality was less than 5.0% and was not different among different treatment groups. Each value represents the mean and standard error of several experiments (n>3), each carried out in quadruplicate incubations at each time point and hormone concentration.
The potency of various GnRH-related peptides in terms of binding (equilibrium dissociation constant; kd) and growth suppression activity in the human hepatocarcinoma derived cell line HepG2 was studied. […] Data analysis was performed as described.
The effect of GnRH-related peptides on the proliferation of the human hepatoma derived cell line HepG2 was studied. Values (mean ± SEM) represent the percent change with respect to initial cell number at day 0 over a period of six days in culture.
The dose response curves were analyzed by a computerized, four parameter curve fitting program (ALLFIT) as described. The result of time-related response on cell proliferation was analyzed using a two-way ANOVA with multiple comparison means of using computerized statistical package (SYSTAT).

SMILES	Inhibition of [D-Lys6]-GnRH-mediated suppression of HepG2 cell proliferation by antagonist	Effect of GnRH antagonist alone on HepG2 cell proliferation	Effect of GnRH antagonist alone on HepG2 cell proliferation (D-Phe^2, D-Trp^3,6 ]-GnRH)
CC(=O)N[C@H](Cc1ccc2ccccc2c1)C(=O)N[C@H](Cc1ccc(Cl)cc1)C(=O)N[C@H](Cc1cccnc1)C(=O)N[C@@H](CO)C(=O)N[C@@H](CCCCNC(=O)c1cccnc1)C(=O)N[C@H](CCCCNC(=O)c1cccnc1)C(=O)N[C@@H](CC(C)C)C(=O)N[C@@H](CCCCNC(C)C)C(=O)N1CCC[C@H]1C(=O)N[C@H](C)C(N)=O [Antide, Acetyl-β-[2-Napthyl]-D-Ala-D-p-Chloro-Phe-β-[3-pyridyl]-D-Ala-Ser-NE-[Nicotinoyl]-Lys-NE-[Nicotinoyl]-D-Lys-Leu-NE-[Isopropyl]-Lys-Pro-D-Ala-NH2, reference compound] (Ac-[d2Nal][dPhe(4-Cl)][d3Pal]SK(Nicotinoyl)[dK](Nicotinoyl)L[Lys(iPr)]P[dA]-NH2)	completely inhibited	did not have any effect; also recorded: had no effect	
CC(C)C[C@H](NC(=O)[C@@H](Cc1c[nH]c2ccccc12)NC(=O)[C@H](Cc1ccc(O)cc1)NC(=O)[C@H](CO)NC(=O)[C@@H](Cc1c[nH]c2ccccc12)NC(=O)[C@@H](Cc1ccccc1)NC(=O)[C@H]1CCC(=O)N1)C(=O)N[C@@H](CCCNC(=N)N)C(=O)N1CCC[C@H]1C(=O)NCC(N)=O [[DpGlu^1, DPhe^2, DTrp^3,6]-GnRH, DpGlu-DPhe-DTrp-Ser-Tyr-DTrp-Leu-Arg-Pro-Gly-NH2, reference compound] ([d(pGlu)][dF][dW]SY[dW]LRPG-NH2)	completely inhibited	did not have any effect	had no effect
